Assay results reported in paper PMC6692620.

Target: PI3K p85 (p85 regulatory subunit of phosphoinositide 3-kinase) (human (endogenous in A549))
Test: co-IP; A549 cell lysates (RIPA buffer), pre-cleared with Protein A Sepharose; ENKUR antibody, PI3K p85 antibody or normal rabbit IgG overnight at 4°C, harvested with protein A Sepharose, western blot; done in both directions

- binding: binds
B1: ENKUR (Enkurin) (protein, UniProt Q8TC29 1-256)
chain: MDPTCSSECIYNLIPSDLKEPPQPPRYISIFKATVKDDMQKAKTAMKTMGPAKVEVPSPKDFLKKHSKEKTLPPKKNFDRNVPKKPAVPLKTDHPVMGIQSGKNFINTNAADIIMGVAKKPKPIYVDKRTGDKHDLEPSGLVPKYINKKDYGVTPEYICKRNEEIKKAQEDYDRYIQENLKKAAMKRLSDEEREAVLQGLKKNWEEVHKEFQSLSVFIDSIPKKIRKQRLEEEMKQLEHDIGIIEKHKIIYIANNA

Results are given in words; binding and its absence hold for the method and conditions named. Binding seen in cells or lysates may run through a third protein. Binding can be weak; no strength is given.
